# PubChem BioAssay AID652243 – Drosophila RNAi Screening Center – 2013
# Assay: 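Fly regulators of androgen-dependent reporter output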 (primary screen)
# Cells: Drosophila S2R+ cells
# Reagents: long dsRNA against Drosophila genes
# Timing: 72 h (48 h, then 24 h hormone)
# Conditions: synthetic androgen R1881 at 10 nM for 24 h
# Detection: 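Firefly light from an androgen-responsive reporter and Renilla control light per well, raw and unnormalised, for each of two replicates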
# Reading the numbers: firefly reporter light: higher = more light from androgen-responsive reporter; Renilla control light: higher = more constitutive control signal (cell number, transfection)
# Call rule: 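Across duplicate plates, a knock-down whose log firefly/Renilla ratio shifted a set fold down or up from the GFP/LacZ control mean was a hit; the downward cut appears as both 1.5 and 3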
# Calls: active = hit: reporter lowered or raised; inactive = no hit
# The deposit covers about 24,000 reagents; shown is a random part of those with a known target gene and a result. Of all reagents, 246 (1%) were called active. 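Plates not normalised; calls are printed but the firefly/Renilla ratio behind them is not deposited; fold cut for lowering reported inconsistently.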 The raw values are shown without normalisation. Not given: the amount of reagent.
gene,amplicon,"firefly reporter light, replicate 1","firefly reporter light, replicate 2","Renilla control light, replicate 1","Renilla control light, replicate 2",activity call
Nepl9,DRSC02255,1.15e5,1.53e5,1.72e6,1.78e6,inactive
CG17568,DRSC02628,3.23e5,3.58e5,2.64e6,3.06e6,inactive
TfAP-2,DRSC11601,2.76e5,2.97e5,2.23e6,2.46e6,inactive
CG31249,DRSC16248,60922,68123,1.12e6,9.60e5,inactive
Cyp9f3,DRSC16636,2.21e5,1.82e5,2.03e6,2.46e6,inactive
Cyp9f3,DRSC25711,8.85e5,6.26e5,1.03e6,1.05e6,inactive
CG9143,DRSC07338,7.12e5,8.80e5,9.62e5,9.38e5,inactive
CG15147,DRSC02447,4.36e5,3.90e5,3.22e6,2.91e6,inactive
CG15147,DRSC02448,1.80e5,1.35e5,1.58e6,1.14e6,inactive
CG15147,DRSC27255,2.56e5,3.07e5,5.68e5,5.40e5,inactive
CG34168,DRSC01938,2.70e5,3.00e5,2.71e6,3.54e6,inactive
CG7824,DRSC16321,1.42e5,1.54e5,1.75e6,2.28e6,inactive
CG10019,DRSC24959,7.42e5,8.44e5,9.92e5,1.05e6,inactive
CG10019,DRSC39008,3.30e5,4.28e5,1.68e6,1.49e6,inactive
AP-2alpha,DRSC00800,1.05e5,79571,4.78e5,5.88e5,inactive
AP-2alpha,DRSC27715,2.42e5,2.46e5,4.91e5,8.05e5,inactive

Only “firefly reporter light, replicate 1”, for 4 of the entries above:
CG15147 [DRSC27255]	2.56e5
CG34168 [DRSC01938]	2.70e5
CG7824 [DRSC16321]	1.42e5
CG10019 [DRSC24959]	7.42e5

The results go on.
gene,amplicon,"firefly reporter light, replicate 1","firefly reporter light, replicate 2","Renilla control light, replicate 1","Renilla control light, replicate 2",activity call
dila,DRSC06607,4.16e5,3.24e5,3.08e6,2.32e6,inactive
dila,DRSC26509,2.64e5,2.12e5,3.32e5,4.22e5,inactive
porin,DRSC03594,7.39e5,8.13e5,1.67e6,2.13e6,inactive
porin,DRSC27826,5.28e5,4.33e5,6.28e5,7.56e5,inactive
Zasp67,DRSC10169,2.53e5,2.21e5,3.78e6,3.39e6,inactive
Zasp67,DRSC24457,8.12e5,9.72e5,9.85e5,1.15e6,inactive
CG12448,DRSC01967,1.41e5,99260,1.18e6,1.11e6,inactive
CG33232 (retired record),DRSC08187,8.12e5,9.67e5,1.36e6,1.32e6,inactive
CG33232 (retired record),DRSC08495,38629,97837,7.12e5,1.01e6,inactive
